No constants are given. Whether binding was seen depends on the method and setting. Binding seen in cells or lysates may run through a third protein. Some results given as binding are weak or reduced against the parent protein; the word gives no strength.

By UniProt entry, the sequences of proteins in these tests, tags left out. Residues count along the entry.
UniProt Q12778: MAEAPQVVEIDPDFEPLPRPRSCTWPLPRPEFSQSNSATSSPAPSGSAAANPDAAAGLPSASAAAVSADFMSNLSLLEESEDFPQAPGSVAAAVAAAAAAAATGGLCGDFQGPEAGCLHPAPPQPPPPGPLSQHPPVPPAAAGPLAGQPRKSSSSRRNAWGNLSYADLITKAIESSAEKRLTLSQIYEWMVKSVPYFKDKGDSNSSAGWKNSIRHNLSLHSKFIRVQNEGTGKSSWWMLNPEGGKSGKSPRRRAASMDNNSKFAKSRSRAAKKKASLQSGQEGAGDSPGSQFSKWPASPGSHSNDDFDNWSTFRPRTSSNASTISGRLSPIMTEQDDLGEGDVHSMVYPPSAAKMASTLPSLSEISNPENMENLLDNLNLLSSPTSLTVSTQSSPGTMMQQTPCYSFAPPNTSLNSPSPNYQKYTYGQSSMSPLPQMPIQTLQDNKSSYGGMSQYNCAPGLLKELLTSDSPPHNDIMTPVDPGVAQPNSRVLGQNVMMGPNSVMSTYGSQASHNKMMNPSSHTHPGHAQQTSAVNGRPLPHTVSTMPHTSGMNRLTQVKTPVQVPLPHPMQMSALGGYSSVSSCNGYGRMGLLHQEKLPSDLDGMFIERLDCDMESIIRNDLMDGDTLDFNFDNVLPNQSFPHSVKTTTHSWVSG
UniProt P05231, residues 30-212: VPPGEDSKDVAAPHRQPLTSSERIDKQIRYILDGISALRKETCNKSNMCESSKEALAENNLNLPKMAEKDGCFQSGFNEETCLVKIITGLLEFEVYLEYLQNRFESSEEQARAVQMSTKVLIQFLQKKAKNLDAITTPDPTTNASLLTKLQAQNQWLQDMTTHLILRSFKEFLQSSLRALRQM

From article PMC9134899 come the findings set out here.

For assay [1], the target named is FOXO1 (human (endogenous in SUM159PT)) (UniProt Q12778). In words: co-IP; SUM159PT cells; nuclear extracts lysed in RIPA buffer, 1 mg protein with antibody 2 h at 4 °C, protein A-agarose beads overnight at 4 °C, Western blot; without and with CAP (PAM, 5 min CAP, 24 h), siRNA against SCAF11 or RPS6KA3; which protein was precipitated is not told. For orientation: In western blotting, separated proteins are transferred to a membrane and probed.

Assay [2] concerns the target T1, SCAF11 (human (endogenous in SUM159PT)) (UniProt Q99590).
T1 sequence: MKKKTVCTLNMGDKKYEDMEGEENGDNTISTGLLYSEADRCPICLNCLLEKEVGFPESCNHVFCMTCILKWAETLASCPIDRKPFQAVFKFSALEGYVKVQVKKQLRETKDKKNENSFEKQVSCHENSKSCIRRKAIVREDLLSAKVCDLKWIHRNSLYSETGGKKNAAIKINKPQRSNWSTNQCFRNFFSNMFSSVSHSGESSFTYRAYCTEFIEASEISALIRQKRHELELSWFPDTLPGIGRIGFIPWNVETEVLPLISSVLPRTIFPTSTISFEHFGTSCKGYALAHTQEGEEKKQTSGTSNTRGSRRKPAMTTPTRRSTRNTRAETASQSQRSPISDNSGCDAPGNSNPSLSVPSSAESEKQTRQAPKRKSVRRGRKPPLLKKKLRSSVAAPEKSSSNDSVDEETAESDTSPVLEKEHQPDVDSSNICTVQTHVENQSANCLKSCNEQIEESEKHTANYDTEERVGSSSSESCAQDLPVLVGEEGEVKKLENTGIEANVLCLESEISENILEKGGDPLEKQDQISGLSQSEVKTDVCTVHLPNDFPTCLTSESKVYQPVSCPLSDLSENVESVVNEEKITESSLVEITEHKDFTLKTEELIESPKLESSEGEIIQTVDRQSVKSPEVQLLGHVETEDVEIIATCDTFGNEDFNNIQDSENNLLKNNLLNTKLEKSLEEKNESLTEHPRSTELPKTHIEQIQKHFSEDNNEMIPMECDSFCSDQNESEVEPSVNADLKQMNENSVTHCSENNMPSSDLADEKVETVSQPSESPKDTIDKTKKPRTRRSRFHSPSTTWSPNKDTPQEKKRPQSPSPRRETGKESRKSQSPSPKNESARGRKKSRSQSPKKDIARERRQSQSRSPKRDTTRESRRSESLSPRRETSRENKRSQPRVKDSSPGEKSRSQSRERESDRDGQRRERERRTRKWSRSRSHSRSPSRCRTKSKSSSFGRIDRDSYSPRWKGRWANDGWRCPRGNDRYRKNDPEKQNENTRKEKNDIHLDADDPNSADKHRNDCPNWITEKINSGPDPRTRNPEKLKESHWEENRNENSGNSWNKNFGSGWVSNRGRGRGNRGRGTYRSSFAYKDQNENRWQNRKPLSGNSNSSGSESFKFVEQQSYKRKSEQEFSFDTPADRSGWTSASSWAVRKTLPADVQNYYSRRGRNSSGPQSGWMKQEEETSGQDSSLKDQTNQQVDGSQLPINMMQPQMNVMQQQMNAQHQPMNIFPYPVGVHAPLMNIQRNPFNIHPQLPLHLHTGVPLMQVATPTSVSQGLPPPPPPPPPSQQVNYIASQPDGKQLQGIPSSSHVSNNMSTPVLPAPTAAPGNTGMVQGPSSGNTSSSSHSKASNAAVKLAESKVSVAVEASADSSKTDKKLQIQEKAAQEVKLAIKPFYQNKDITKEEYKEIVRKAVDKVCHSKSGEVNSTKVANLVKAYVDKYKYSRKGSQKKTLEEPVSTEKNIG
Described as above.

Regarding IL6 (from UniProt P05231 30-212), in assay [1], the binding entry was “binds”.

B1: AQP3 (protein, UniProt Q92482 1-292)
chain: MGRQKELVSRCGEMLHIRYRLLRQALAECLGTLILVMFGCGSVAQVVLSRGTHGGFLTINLAFGFAVTLGILIAGQVSGAHLNPAVTFAMCFLAREPWIKLPIYTLAQTLGAFLGAGIVFGLYYDAIWHFADNQLFVSGPNGTAGIFATYPSGHLDMINGFFDQFIGTASLIVCVLAIVDPYNNPVPRGLEAFTVGLVVLVIGTSMGFNSGYAVNPARDFGPRLFTALAGWGSAVFTTGQHWWWVPIVSPLLGSIAGVFVYQLMIGCHLEQPPPSNEEENVKLAHVKHKEQI
On to B1, for which, in assay [2], the binding result was “binds”.
